No constants are given. Whether binding was seen depends on the method and setting. Binding seen in cells or lysates may run through a third protein. A yes stands for co-enrichment or nearness to the bait. Other partners may have been found. Tags and fused reporters may be left off the sequences shown.

The chains behind the UniProt entries cited, without tags or fusion partners.
UniProt Q39017: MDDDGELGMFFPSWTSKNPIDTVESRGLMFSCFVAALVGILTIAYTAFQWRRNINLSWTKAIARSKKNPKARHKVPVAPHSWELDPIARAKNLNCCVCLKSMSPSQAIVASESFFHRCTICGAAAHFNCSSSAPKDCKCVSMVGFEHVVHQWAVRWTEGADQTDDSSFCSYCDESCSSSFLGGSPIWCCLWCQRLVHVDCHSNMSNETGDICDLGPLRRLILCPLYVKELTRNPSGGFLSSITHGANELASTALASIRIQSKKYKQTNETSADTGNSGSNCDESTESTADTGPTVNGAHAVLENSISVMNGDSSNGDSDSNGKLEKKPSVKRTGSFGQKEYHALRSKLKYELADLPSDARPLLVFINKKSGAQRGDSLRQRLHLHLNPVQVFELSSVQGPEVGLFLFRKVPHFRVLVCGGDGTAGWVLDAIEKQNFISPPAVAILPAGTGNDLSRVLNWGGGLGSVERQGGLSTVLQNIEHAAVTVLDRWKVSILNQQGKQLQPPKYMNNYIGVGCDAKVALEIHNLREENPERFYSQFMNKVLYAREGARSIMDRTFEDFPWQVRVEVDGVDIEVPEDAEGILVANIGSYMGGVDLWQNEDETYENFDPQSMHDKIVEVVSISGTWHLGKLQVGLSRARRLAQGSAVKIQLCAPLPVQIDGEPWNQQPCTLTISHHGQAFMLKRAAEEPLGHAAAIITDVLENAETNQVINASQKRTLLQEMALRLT

The test concerns the target T1, SYT1 used as bait in the TAP-TAG screening (Arabidopsis thaliana) (UniProt Q9SKR2).
T1 sequence: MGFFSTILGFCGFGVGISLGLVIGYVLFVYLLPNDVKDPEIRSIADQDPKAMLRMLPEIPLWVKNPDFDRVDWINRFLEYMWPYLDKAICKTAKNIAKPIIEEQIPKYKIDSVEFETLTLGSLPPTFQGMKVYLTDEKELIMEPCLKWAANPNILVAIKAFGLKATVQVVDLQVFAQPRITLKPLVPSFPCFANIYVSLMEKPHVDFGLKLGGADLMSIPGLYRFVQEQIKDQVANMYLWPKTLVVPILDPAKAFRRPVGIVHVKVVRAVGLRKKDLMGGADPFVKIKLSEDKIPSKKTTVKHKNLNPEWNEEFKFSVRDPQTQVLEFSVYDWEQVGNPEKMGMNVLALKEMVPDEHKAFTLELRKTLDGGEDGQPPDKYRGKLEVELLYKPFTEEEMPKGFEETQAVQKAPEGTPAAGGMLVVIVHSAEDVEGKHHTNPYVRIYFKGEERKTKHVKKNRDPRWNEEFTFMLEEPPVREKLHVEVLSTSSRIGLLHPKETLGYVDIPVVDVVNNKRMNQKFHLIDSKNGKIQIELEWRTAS
Nature of the test: affinity purification with mass spectrometry.

Turning to “DGK1 identified in the TAP-TAG screening (from UniProt Q39017 1-728)”, the binding entry was “binds”.

The record behind these values is publication doi:10.1101/2024.01.16.575708.
